Laboratory results taken from publication PMC9633600.
These are yes or no findings as the source states them, for the method shown. In cells and extracts the contact can be indirect. Here binding means that the protein was enriched with, or labelled near, the bait; the list need not be complete. For part of these data: Tags and fused reporters may be left off the sequences shown. Blank lines part the entries; values can stand above or below the binder they belong to.

Sequences of proteins named here, by UniProt entry; tags and fusion partners are left off. A change or cut given only in a name is not applied to a line headed by its entry. A line that says so, or that is headed by a name, gives the form on record, which may keep a tag or linker.
FGFR2b-HA-APEX2 (P21802, form named): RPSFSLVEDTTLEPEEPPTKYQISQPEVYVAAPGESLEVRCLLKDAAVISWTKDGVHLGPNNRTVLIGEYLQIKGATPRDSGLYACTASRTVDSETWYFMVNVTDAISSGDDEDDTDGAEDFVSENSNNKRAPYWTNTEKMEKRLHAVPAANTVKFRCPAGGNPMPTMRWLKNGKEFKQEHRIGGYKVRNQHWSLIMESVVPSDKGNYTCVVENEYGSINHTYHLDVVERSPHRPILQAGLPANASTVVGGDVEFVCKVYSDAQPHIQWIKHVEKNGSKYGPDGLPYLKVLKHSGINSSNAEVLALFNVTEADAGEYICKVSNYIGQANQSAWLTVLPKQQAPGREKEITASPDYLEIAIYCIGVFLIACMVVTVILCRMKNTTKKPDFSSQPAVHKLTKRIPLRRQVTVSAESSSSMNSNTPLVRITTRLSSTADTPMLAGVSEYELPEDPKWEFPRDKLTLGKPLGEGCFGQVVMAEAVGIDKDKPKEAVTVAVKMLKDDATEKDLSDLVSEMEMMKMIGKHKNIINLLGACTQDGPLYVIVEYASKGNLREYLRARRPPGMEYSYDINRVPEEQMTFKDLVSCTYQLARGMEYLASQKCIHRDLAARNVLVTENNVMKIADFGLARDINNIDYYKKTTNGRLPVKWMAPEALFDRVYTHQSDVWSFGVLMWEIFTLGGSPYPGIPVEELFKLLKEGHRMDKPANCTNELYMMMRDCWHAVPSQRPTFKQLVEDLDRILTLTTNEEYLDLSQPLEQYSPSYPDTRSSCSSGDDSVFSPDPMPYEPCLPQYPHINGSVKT

How the values were obtained:
Assay in all cases: proximity labelling; APEX2 fused to the bait in living cells; biotin-phenol 40 min, H2O2 1 min, quenched with Trolox and sodium ascorbate; streptavidin beads pull-down 2 h RT; bound proteins immunoblotted against supernatant and total lysate; cells untreated or FGF10 100 ng/mL for 1, 8 or 40 min
eGFP-RAB11-APEX2, P62491 = biological target: T1, eGFP-RAB11-APEX2, P62491; settings: remark: other sources report otherwise
T1 chain: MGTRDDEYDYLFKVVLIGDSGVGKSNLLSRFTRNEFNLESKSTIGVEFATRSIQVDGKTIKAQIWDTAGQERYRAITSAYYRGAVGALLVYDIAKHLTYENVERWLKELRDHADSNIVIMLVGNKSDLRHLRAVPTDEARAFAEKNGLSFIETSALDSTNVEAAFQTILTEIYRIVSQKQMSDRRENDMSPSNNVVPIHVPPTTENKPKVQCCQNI

FGFR2b-HA-APEX2 = FGFR2b-HA-APEX2 (UniProt P21802)
eGFP-RAB11-APEX2 = eGFP-RAB11-APEX2 (UniProt P62491)

binding (eGFP-RAB11-APEX2, P62491): binds
B1: RAB25, P57735 1-213 (protein)
chain: MGNGTEEDYNFVFKVVLIGESGVGKTNLLSRFTRNEFSHDSRTTIGVEFSTRTVMLGTAAVKAQIWDTAGLERYRAITSAYYRGAVGALLVFDLTKHQTYAVVERWLKELYDHAEATIVVMLVGNKSDLSQAREVPTEEARMFAENNGLLFLETSALDSTNVELAFETVLKEIFAKVSKQRQNSIRTNAITLGSAQAGQEPGPGEKRACCISL

binding (FGFR2b-HA-APEX2): binds
B2: phosphorylated PLCγ (enzyme, UniProt P19174 1-1290)
chain: MAGAASPCANGCGPGAPSDAEVLHLCRSLEVGTVMTLFYSKKSQRPERKTFQVKLETRQITWSRGADKIEGAIDIREIKEIRPGKTSRDFDRYQEDPAFRPDQSHCFVILYGMEFRLKTLSLQATSEDEVNMWIKGLTWLMEDTLQAPTPLQIERWLRKQFYSVDRNREDRISAKDLKNMLSQVNYRVPNMRFLRERLTDLEQRSGDITYGQFAQLYRSLMYSAQKTMDLPFLEASTLRAGERPELCRVSLPEFQQFLLDYQGELWAVDRLQVQEFMLSFLRDPLREIEEPYFFLDEFVTFLFSKENSVWNSQLDAVCPDTMNNPLSHYWISSSHNTYLTGDQFSSESSLEAYARCLRMGCRCIELDCWDGPDGMPVIYHGHTLTTKIKFSDVLHTIKEHAFVASEYPVILSIEDHCSIAQQRNMAQYFKKVLGDTLLTKPVEISADGLPSPNQLKRKILIKHKKLAEGSAYEEVPTSMMYSENDISNSIKNGILYLEDPVNHEWYPHYFVLTSSKIYYSEETSSDQGNEDEEEPKEVSSSTELHSNEKWFHGKLGAGRDGRHIAERLLTEYCIETGAPDGSFLVRESETFVGDYTLSFWRNGKVQHCRIHSRQDAGTPKFFLTDNLVFDSLYDLITHYQQVPLRCNEFEMRLSEPVPQTNAHESKEWYHASLTRAQAEHMLMRVPRDGAFLVRKRNEPNSYAISFRAEGKIKHCRVQQEGQTVMLGNSEFDSLVDLISYYEKHPLYRKMKLRYPINEEALEKIGTAEPDYGALYEGRNPGFYVEANPMPTFKCAVKALFDYKAQREDELTFIKSAIIQNVEKQEGGWWRGDYGGKKQLWFPSNYVEEMVNPVALEPEREHLDENSPLGDLLRGVLDVPACQIAIRPEGKNNRLFVFSISMASVAHWSLDVAADSQEELQDWVKKIREVAQTADARLTEGKIMERRKKIALELSELVVYCRPVPFDEEKIGTERACYRDMSSFPETKAEKYVNKAKGKKFLQYNRLQLSRIYPKGQRLDSSNYDPLPMWICGSQLVALNFQTPDKPMQMNQALFMTGRHCGYVLQPSTMRDEAFDPFDKSSLRGLEPCAISIEVLGARHLPKNGRGIVCPFVEIEVAGAEYDSTKQKTEFVVDNGLNPVWPAKPFHFQISNPEFAFLRFVVYEEDMFSDQNFLAQATFPVKGLKTGYRAVPLKNNYSEDLELASLLIKIDIFPAKENGDLSPFSGTSLRERGSDASGQLFHGRAREGSFESRYQQPFEDFRISQEHLADHFDSRERRAPRRTRVNGDNRL
modifications: phosphotyrosine at 783 (the antibody listed is Phospho-PLCγ1 (Tyr783))

binding (eGFP-RAB11-APEX2): binds
B3: RCP (protein, UniProt Q6WKZ4 1-1283)
chain: MSLMVSAGRGLGAVWSPTHVQVTVLQARGLRAKGPGGTSDAYAVIQVGKEKYATSVSERSLGAPVWREEATFELPSLLSSGPAAAATLQLTVLHRALLGLDKFLGRAEVDLRDLHRDQGRRKTQWYKLKSKPGKKDKERGEIEVDIQFMRNNMTASMFDLSMKDKSRNPFGKLKDKIKGKNKDSGSDTASAIIPSTTPSVDSDDESVVKDKKKKSKIKTLLSKSNLQKTPLSQSMSVLPTSKPEKVLLRPGDFQSQWDEDDNEDESSSASDVMSHKRTASTDLKQLNQVNFTLPKKEGLSFLGGLRSKNDVLSRSNVCINGNHVYLEQPEAKGEIKDSSPSSSPSPKGFRKKHLFSSTENLAAGSWKEPAEGGGLSSDRQLSESSTKDSLKSMTLPSYRPAPLVSGDLRENMAPANSEATKEAKESKKPESRRSSLLSLMTGKKDVAKGSEGENPLTVPGREKEGMLMGVKPGEDASGPAEDLVRRSEKDTAAVVSRQGSSLNLFEDVQITEPEAEPESKSEPRPPISSPRAPQTRAVKPRLEVSPEAQPTARLPSPTDSPSSLPPLPSSSGQASVPSELGHGADTQSSESPSVFSSLSSPIAAPISTSTPIESWPLVDRGQAKSEGPPLLPKAELQTESLTPVPNSGSSALGSLFKQPSFPANKGTEDSLMGRTRETGTEKNTSSLELEESLPEQPETGRQEEELPRFPCKKQDYSPSSGEAQEVPFALSLSSDGAVSPVGELAAGGDRDLESQAGSLVESKARDAAEEVAPPLPMGASVPSIDSMMRKLEEMGLNLRKDQKKTKKRVSFSEQLFTEEAVAGAALLVEGHSSCPQELNPAWSVAGNASDGEPPESPHAEDSERESVTTPGPATCGAPASPADHLLLPSQEESFSEVPMSEASSAKDTPLFRMEGEDALVTQYQSKASDHEGLLSDPLSDLQLVSDFKSPIMADLNLSLPSIPEVASDDERIDQVEDDGDQVEDDGETAKSSTLDIGALSLGLVVPCPERGKGPSGEADRLVLGEGLCDFRLQAPQASVTAPSEQTTEFGIHKPHLGKSSSLDKQLPGPSGGEEEKPMGNGSPSPPPGTSLDNPVPSPSPSEIFPVTHSFPSSAHSDTHHTSTAESQKKATAEGSAGRVENFGKRKPLLQAWVSPSETHPVSAQPGAGTGSAKHRLHPVKPMNAMATKVANCSLGTATIISENLNNEVMMKKYSPSDPAFAYAQLTHDELIQLVLKQKETISKKEFQVRELEDYIDNLLVRVMEETPNILRIPTQVGKKAGKM
